This note sets out measurements from article PMC8933418.

Sequences of proteins named here, by UniProt entry; tags and fusion partners are left off. A change or cut given only in a name is not applied to a line headed by its entry.
UniProt P19338, whole entry: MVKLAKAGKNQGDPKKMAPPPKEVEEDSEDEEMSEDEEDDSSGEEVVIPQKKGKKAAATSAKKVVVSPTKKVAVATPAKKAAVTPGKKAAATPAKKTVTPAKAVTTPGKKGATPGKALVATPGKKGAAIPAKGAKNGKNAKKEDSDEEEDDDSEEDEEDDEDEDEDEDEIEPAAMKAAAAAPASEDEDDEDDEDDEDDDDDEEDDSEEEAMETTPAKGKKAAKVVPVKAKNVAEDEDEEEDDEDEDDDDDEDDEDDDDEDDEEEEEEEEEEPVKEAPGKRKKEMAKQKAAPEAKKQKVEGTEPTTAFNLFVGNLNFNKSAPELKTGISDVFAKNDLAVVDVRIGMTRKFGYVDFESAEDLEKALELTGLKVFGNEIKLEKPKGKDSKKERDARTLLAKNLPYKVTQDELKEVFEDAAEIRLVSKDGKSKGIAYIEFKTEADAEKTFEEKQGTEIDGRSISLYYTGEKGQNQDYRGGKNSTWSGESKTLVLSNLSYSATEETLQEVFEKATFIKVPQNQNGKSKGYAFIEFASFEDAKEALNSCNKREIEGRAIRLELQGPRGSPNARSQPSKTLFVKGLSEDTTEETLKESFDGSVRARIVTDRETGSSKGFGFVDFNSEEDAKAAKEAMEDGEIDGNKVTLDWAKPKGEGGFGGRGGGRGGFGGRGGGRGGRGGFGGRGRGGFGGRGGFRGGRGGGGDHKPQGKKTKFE
UniProt P15941: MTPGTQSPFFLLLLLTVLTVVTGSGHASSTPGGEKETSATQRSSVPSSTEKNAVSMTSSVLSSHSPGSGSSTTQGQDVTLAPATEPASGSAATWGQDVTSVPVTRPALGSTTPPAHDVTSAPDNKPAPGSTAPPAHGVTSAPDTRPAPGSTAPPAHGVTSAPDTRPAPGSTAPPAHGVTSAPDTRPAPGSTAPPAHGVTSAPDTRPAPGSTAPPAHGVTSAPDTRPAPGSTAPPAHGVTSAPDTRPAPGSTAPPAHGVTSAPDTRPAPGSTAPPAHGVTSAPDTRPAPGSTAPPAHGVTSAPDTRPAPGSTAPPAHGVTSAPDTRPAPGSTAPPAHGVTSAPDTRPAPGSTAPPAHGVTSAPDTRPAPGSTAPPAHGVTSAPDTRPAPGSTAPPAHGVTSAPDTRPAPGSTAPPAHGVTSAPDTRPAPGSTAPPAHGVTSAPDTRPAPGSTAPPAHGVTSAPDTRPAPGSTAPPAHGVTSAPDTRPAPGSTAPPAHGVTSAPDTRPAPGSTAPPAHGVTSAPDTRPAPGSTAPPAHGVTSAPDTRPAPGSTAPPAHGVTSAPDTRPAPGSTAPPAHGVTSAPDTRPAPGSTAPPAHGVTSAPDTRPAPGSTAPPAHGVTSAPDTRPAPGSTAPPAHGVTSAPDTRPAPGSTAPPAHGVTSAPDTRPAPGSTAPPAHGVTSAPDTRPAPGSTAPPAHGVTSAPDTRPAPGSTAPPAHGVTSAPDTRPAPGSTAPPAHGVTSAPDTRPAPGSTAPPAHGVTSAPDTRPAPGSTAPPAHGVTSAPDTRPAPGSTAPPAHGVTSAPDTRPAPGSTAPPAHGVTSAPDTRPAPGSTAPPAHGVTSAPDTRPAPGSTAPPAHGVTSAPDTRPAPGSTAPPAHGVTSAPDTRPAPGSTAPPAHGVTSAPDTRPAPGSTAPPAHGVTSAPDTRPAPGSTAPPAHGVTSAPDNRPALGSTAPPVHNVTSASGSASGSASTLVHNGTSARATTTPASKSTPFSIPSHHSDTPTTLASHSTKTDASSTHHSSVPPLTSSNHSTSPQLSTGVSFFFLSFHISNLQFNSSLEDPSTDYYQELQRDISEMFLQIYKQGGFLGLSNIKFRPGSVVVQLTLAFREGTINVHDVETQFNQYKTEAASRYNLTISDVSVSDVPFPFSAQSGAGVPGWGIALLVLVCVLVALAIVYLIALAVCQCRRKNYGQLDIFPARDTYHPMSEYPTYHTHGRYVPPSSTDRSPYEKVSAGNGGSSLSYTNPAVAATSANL

For at least one entry, the source does not settle the construct or the ends of the probe. Where cells or extracts were used, other partners may take part. For some assays here: Weaker means in comparison with the reference protein, sequence or condition of that experiment. For some assays here: At least one verdict rests on a figure or table, not on a statement of the authors.

The target of data set [1] is nucleolin on HeLa cells (human) (UniProt P19338). Description: confocal microscopy on HeLa cells. To be noted: stronger uptake than WA-Cu30; protein on the cell surface; label: 3' FAM, copper nanoparticles grown on T30; single-stranded DNA.
The target in data set [2] is Mucin 1 (MUC1) on the surface of MUC1+ cells (MCF-7, A549) (human) (UniProt P15941). Description: flow cytometry and confocal microscopy on cells. To be noted: living-cell assays (flow cytometry, confocal microscopy), protein on the cell surface, label: copper nanoparticles grown on T30, single-stranded DNA.
Data set [3] shares this target. The data set is described as follows: MTT prodrug activation on MCF-7 (indirect). To be noted: complementary strand inhibits aptamer-protein binding; protein on the cell surface; label: copper nanoparticles grown on T30.
The target is the same in data set [4]. Description: flow cytometry on cells. Conditions: no CuNPs; living-cell assays (flow cytometry, confocal microscopy); protein on the cell surface; single-stranded DNA. In general terms: In flow cytometry, cells or beads pass a laser one at a time.

Consider “GGTGGTGGTGGTTGTGGTGGTGGTGGCAACATCATCAACACTTTTTTTTTTTTTTTTTTTTTTTTTTTTTT [AApt-Cu30 (AS1411-T30-FAM with CuNPs)]”, for which the binding result in data set [1] is “binds”. Turning to “TTTTTTTTTTTTTTTTTTTTTTTTTTTTTTCAACATCATCAACAC [WA-Cu30 (WA-T30 with CuNPs, no aptamer)]”, the binding result in data set [2] (MCF-7 and A549, weak signal, aptamer absent) is “binds more weakly”. With “TTTTTTTTTTTTTTTTTTTTTTTTTTTTTTCAACATCATCAACACGGCTATAGCACATGGGTAAAACGAC / GTCGTTTTACCCATGTGCTATAGCC [MApt-Cu30-block (MUC1-T30 with complementary strand)]”, the binding result in data set [3] is “binds more weakly”. With “TTTTTTTTTTTTTTTTTTTTTTTTTTTTTTCAACATCATCAACACGGCTATAGCACATGGGTAAAACGAC [MApt (MUC1-T30 without CuNPs)]”, in data set [4], the binding result is listed as “binds”.

On to “TTTTTTTTTTTTTTTTTTTTTTTTTTTTTTCAACATCATCAACACGGCTATAGCACATGGGTAAAACGAC [MApt-Cu30 (MUC1-T30 with CuNPs)]”, for which the binding result in data set [2] (MCF-7 and A549, slight or no shift on MUC1- or normal cells) is recorded as “binds”.
